Patent US11926604B2, “Myelination stimulator compounds, and methods of treatment” (priority 2018, dated 2024)
Some results were stated once for a whole list of compounds, not compound by compound. Some ranges recur; such a range may be that of the whole group of compounds.

Tested on: PreOLs
Assay: PreOL proliferation (CYQUANT DNA content assay)
Type: cell-based, rat
Conditions: rescreening side-by-side with diazoxide, 3 independent plates

SMILES: CC(=O)c1ccc(N2CCN(C(=O)CCC3=Nc4ccccc4S(=O)(=O)N3)CC2)cc1 [Compound K261-0310, 1-(4-(4-acetylphenyl)piperazin-1-yl)-3-(1,1-dioxido-2H-benzo[e][1,2,4]thiadiazin-3-yl)propan-1-one]
- potency relative to diazoxide in promoting proliferation: 5-10 fold
